The list shows a part of the results, in another mix than the full data. The calls were merged from several studies; some rest on single wells. The list shows a part of the results.
Experiments:
Conditions in all cases: stereoisomer not certain
UniProt E9PVX1 = target: UniProt E9PVX1
Procedure, shortened: (§1)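 Each receptor–molecule pair is labelled responsive or non-responsive (inactive) according to whether the original authors judged the measured signal statistically different from baseline. The data were taken from the main text and supplementary material of published papers and checked for typos and inconsistencies. Assay methods differed by source, with transient luciferase assays in mammalian cell lines being common.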

Sequences of proteins named here, by UniProt entry; tags and fusion partners are left off. A line that says so, or that is headed by a name, gives the form on record, which may keep a tag or linker.
UniProt E9PVX1, as listed by the source: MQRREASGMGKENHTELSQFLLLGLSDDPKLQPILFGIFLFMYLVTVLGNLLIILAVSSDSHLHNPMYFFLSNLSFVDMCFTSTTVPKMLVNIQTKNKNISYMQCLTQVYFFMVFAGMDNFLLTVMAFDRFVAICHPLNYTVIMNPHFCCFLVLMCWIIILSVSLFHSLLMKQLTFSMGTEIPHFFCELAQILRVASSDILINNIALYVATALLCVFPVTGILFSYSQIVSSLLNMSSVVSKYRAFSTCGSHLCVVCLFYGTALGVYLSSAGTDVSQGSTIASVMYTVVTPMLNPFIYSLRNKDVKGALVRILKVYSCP
UniProt E9PZ66, as listed by the source: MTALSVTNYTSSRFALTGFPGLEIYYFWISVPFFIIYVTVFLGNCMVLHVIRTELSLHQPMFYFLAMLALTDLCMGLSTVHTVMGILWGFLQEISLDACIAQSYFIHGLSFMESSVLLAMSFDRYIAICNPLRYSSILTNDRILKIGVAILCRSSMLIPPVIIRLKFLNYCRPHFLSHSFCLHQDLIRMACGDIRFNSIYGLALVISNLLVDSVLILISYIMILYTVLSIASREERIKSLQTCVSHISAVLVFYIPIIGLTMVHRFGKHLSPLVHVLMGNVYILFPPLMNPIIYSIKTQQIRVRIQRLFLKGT
UniProt E9Q4X7, as listed by the source: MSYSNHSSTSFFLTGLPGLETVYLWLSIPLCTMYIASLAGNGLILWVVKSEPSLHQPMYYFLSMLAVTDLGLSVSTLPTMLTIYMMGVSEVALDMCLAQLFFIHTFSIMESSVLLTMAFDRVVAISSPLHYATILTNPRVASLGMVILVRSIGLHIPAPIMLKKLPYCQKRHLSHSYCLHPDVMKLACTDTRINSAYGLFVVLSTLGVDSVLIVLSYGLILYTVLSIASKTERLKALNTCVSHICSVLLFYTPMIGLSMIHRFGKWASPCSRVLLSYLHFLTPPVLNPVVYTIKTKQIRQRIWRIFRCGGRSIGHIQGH
UniProt E9Q546, as listed by the source: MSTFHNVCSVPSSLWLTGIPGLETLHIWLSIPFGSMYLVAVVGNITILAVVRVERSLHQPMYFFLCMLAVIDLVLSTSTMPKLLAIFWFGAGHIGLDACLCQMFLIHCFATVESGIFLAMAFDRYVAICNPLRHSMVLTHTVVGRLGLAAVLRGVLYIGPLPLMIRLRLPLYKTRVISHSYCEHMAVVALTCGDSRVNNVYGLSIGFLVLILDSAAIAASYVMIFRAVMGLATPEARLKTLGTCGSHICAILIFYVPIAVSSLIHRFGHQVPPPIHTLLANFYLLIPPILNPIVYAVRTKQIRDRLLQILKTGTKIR
UniProt E9Q6Z7, as listed by the source: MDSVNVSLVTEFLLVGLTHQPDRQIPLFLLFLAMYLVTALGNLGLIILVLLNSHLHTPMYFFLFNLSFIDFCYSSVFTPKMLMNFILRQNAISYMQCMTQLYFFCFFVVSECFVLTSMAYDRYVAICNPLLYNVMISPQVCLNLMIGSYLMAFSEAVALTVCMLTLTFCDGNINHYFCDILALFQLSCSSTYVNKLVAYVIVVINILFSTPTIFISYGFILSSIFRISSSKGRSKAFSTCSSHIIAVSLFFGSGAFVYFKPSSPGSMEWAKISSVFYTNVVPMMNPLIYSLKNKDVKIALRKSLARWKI
UniProt L7MU75, as listed by the source: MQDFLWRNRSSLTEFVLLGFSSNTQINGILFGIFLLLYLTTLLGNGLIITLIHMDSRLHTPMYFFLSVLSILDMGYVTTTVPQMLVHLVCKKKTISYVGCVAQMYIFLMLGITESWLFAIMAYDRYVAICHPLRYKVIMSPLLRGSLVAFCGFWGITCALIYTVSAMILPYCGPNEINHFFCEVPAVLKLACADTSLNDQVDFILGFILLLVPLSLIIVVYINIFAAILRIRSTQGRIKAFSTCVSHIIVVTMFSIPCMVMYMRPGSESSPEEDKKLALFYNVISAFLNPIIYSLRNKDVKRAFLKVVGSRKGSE
UniProt L7N210, as listed by the source: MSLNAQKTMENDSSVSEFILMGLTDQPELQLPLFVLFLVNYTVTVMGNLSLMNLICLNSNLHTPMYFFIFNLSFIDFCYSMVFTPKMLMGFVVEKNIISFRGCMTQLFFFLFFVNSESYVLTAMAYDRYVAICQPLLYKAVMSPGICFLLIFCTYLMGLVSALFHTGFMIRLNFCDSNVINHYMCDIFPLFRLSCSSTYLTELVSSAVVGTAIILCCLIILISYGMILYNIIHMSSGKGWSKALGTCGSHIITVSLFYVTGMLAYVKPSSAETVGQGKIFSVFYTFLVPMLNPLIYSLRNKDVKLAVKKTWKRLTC
UniProt Q3KPB0, as listed by the source: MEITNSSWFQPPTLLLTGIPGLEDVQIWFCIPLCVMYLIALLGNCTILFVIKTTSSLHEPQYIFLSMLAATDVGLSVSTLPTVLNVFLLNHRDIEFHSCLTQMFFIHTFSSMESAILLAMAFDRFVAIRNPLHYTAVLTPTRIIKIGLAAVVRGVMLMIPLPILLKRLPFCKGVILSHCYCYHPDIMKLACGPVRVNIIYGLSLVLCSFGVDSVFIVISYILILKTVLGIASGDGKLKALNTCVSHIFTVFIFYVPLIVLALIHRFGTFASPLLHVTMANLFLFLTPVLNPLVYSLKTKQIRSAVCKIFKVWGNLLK
UniProt Q3U0P3, as listed by the source: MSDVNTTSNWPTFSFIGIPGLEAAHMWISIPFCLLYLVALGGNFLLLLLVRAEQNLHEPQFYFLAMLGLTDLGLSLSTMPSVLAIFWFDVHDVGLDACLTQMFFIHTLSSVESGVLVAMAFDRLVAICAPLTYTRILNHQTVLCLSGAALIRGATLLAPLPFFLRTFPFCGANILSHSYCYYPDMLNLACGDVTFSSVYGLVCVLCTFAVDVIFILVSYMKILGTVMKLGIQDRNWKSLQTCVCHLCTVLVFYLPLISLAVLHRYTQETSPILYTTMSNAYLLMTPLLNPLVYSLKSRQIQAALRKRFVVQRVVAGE
UniProt Q7TQU8, as listed by the source: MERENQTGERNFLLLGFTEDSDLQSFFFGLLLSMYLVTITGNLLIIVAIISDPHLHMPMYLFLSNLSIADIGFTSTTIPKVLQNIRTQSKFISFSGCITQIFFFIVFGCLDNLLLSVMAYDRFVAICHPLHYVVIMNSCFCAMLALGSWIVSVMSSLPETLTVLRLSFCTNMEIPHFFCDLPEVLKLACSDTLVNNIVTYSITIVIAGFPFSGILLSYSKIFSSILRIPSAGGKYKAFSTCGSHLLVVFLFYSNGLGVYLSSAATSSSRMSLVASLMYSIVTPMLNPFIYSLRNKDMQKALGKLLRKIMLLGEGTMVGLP

UniProt E9PZ66 = target: UniProt E9PZ66
Procedure, shortened: as §1

UniProt E9Q4X7 = target: UniProt E9Q4X7
Procedure, shortened: as §1

UniProt E9Q546 = target: UniProt E9Q546
Procedure, shortened: as §1

UniProt E9Q6Z7 = target: UniProt E9Q6Z7
Procedure, shortened: as §1

UniProt L7MU75 = target: UniProt L7MU75
Procedure, shortened: as §1

UniProt L7N210 = target: UniProt L7N210
Procedure, shortened: as §1

UniProt Q3KPB0 = target: UniProt Q3KPB0
Procedure, shortened: as §1

UniProt Q3U0P3 = target: UniProt Q3U0P3
Procedure, shortened: as §1

UniProt Q7TQU8 = target: UniProt Q7TQU8
Procedure, shortened: as §1

Measured: odorant receptor agonist call;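 further: active if original authors judged signal statistically different from baseline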

CCC(C)=O
inactive: UniProt E9PVX1 | UniProt E9PZ66 | UniProt E9Q4X7 | UniProt E9Q546 | UniProt E9Q6Z7 | UniProt L7MU75 | UniProt L7N210 | UniProt Q3KPB0 | UniProt Q3U0P3 | UniProt Q7TQU8

CCOc1cc(C=O)ccc1O
inactive: UniProt E9PVX1 | UniProt E9PZ66 | UniProt E9Q4X7 | UniProt E9Q546 | UniProt E9Q6Z7 | UniProt L7MU75 | UniProt L7N210 | UniProt Q3KPB0 | UniProt Q3U0P3 | UniProt Q7TQU8
